According to US8591892B2, “FTY720 increases CD74 expression and sensitizes cancer cells to anti-CD74 antibody-mediated cell death” (The Ohio State University, priority 2011, dated 2013):
At least one compound was matched to its structure with a doubt left.

System: MCL cell lines (Jeko-1, Mino, UPN-1, Z-138)
Experiment: Immunoblot for LC3-I/LC3-II (autophagic flux)
Assay type: cell-based, human
Settings: four MCL cell lines, 24 hours; FTY720 7.5-12.5 μM, chloroquine 40 μM; vs untreated
Text: FIG. 1. […] Actin was used as loading control. […] Actin was used as loading control.

## CCCCCCCCc1ccc(CCC(N)(CO)CO)cc1 [FTY720, fingolimod]
  LC3-II levels: significant increase in LC3-II levels
